Our source for the binding values is publication PMC10850816.

The assay addresses T1, FLAG-FERM-JAK2 (45 kDa JAK2 variant) (human) (UniProt O60674).
T1 sequence: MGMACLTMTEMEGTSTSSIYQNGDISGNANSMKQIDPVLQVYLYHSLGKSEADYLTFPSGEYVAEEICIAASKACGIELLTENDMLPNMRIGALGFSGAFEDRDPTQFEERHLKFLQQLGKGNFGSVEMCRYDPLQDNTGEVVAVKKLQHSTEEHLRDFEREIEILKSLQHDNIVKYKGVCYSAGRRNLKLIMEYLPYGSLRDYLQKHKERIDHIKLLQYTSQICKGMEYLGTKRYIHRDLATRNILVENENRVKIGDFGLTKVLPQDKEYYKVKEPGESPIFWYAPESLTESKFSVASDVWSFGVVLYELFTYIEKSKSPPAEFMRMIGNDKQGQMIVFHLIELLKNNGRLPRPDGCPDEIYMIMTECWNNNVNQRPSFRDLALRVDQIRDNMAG
The assay is described as follows: co-IP; FLAG immunoprecipitation from Ba/F3 cells expressing FLAG-FERM-JAK2 or FLAG-JAK2-V617F, immunoblot (Fig. 3A).

Results are given in words; binding and its absence hold for the method and conditions named. Binding seen in cells or lysates may run through a third protein. Binding calls can cover weak binding; strength is not graded here. Sequences can lack the tags named with a protein.

Take “STAT5 (endogenous in Ba/F3 cells) (mouse (endogenous in Ba/F3))”: the binding result is reported as “binds”.
